Test results: publication PMC9260921, “Design and Synthesis of Carbothioamide/Carboxamide-Based Pyrazoline Analogs as Potential Anticancer Agents: Apoptosis, Molecular Docking, ADME Assay, and DNA Binding Studies” (ACS Omega, 2022)

Assays:
[1] = tested on: Ct-DNA; experiment: Circular dichroism; assay type: binding; details: Ct-DNA 50 μM, compound 50 μM
[2] = tested on: Ct-DNA; experiment: Time-resolved fluorescence; assay type: binding

SMILES | DNA binding mode (circular dichroism) [1] | amplitude of τ1 time component ([2]; upon addition of DNA) | amplitude of τ2 time component ([2]; upon addition of DNA) | amplitude of τ3 time component ([2]; upon addition of DNA) | lifetime τ1 ([2]; with Ct-DNA, listed as 3a–DNA) | lifetime τ2 ([2]; with Ct-DNA, listed as 3a–DNA) | lifetime τ3 ([2]; with Ct-DNA, listed as 3a–DNA) | amplitude of τ1 time component ([2]; without Ct-DNA) | amplitude of τ2 time component ([2]; without Ct-DNA) | amplitude of τ3 time component ([2]; without Ct-DNA) | lifetime τ1 ([2]; without Ct-DNA) | lifetime τ2 ([2]; without Ct-DNA) | lifetime τ3 ([2]; without Ct-DNA) | lifetime τ1 ([2]; with Ct-DNA, listed as 3h–DNA) | lifetime τ2 ([2]; with Ct-DNA, listed as 3h–DNA) | lifetime τ3 ([2]; with Ct-DNA, listed as 3h–DNA)
CN(C)c1ccc(C2CC(c3ccc(Cl)cc3)=NN2C(N)=S)cc1 (centres unmarked) [Compound 3a] | intercalative mode | 28.57% | 32.78% | 38.65% | 1.38 ns | 7.23 ns | 0.29 ns | 27.81% | 33.73% | 38.46% | 1.26 ns | 7.46 ns | 0.18 ns |  |  | 
CN(C)c1ccc(C2CC(c3cccc(Br)c3)=NN2C(N)=O)cc1 (centres unmarked) [Compound 3h] | intercalative mode | 35.34% | 19.64% | 45.05% |  |  |  | 36.5% | 17.41% | 46.09% | 0.90 ns | 6.60 ns | 0.12 ns | 1.0 ns | 6.73 ns | 0.21 ns
